Laboratory results published in the supplement of paper PMC7666118.
The other results are listed elsewhere or left out.

Chains of the proteins cited; added tags and fusions are not shown. Lines headed by an entry give the natural chain unless they say otherwise; changes in a name come on top.
UniProt Q96PK6: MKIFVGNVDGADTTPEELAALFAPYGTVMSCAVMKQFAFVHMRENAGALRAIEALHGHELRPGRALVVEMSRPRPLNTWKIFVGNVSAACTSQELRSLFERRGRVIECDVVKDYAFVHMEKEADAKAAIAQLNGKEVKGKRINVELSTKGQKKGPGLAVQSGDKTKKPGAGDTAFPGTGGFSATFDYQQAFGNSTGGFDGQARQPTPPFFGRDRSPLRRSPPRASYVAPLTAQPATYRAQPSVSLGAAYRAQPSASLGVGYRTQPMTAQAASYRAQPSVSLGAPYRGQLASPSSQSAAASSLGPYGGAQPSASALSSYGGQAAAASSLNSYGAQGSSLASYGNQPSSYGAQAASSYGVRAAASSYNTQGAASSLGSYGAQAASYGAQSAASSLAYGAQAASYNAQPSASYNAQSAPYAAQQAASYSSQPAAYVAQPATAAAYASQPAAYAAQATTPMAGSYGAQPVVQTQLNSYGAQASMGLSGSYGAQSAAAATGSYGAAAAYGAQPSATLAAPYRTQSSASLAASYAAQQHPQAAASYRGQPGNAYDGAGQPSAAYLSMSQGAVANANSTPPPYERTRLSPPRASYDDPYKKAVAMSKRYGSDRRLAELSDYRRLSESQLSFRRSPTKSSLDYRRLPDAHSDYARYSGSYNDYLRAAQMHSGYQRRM
UniProt Q16576, whole entry: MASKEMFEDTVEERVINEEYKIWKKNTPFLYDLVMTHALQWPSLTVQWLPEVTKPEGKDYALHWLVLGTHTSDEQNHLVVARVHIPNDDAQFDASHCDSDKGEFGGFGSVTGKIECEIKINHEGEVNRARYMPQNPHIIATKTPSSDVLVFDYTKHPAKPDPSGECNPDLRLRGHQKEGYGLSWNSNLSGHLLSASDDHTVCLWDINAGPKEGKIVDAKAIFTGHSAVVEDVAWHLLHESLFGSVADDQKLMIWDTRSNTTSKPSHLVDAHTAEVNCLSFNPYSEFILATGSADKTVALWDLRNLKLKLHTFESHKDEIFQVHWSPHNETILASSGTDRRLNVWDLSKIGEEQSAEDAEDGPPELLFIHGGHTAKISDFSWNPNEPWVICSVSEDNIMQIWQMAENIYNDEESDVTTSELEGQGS
UniProt Q969X0: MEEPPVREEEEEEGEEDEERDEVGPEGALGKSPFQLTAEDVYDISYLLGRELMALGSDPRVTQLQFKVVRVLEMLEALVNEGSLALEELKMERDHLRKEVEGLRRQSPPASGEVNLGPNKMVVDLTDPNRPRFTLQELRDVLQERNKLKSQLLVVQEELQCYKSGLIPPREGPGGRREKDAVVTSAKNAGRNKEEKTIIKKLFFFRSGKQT
UniProt Q9BTD8: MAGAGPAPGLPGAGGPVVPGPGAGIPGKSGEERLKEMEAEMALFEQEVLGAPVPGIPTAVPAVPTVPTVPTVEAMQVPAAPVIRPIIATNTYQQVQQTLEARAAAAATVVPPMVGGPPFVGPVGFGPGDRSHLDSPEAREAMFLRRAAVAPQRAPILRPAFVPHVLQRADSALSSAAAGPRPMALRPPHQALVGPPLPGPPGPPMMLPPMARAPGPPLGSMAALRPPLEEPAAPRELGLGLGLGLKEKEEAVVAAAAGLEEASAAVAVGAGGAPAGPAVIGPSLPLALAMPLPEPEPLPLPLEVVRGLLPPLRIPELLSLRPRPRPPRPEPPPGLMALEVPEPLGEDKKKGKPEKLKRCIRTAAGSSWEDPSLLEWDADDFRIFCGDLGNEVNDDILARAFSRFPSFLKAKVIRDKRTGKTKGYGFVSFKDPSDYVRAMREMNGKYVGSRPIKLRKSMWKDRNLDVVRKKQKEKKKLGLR
UniProt Q13636: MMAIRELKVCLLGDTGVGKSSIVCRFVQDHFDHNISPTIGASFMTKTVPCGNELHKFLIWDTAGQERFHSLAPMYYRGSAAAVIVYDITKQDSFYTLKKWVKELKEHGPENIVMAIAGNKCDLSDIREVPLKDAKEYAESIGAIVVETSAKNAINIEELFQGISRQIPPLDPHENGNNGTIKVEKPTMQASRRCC
UniProt Q9UKM9: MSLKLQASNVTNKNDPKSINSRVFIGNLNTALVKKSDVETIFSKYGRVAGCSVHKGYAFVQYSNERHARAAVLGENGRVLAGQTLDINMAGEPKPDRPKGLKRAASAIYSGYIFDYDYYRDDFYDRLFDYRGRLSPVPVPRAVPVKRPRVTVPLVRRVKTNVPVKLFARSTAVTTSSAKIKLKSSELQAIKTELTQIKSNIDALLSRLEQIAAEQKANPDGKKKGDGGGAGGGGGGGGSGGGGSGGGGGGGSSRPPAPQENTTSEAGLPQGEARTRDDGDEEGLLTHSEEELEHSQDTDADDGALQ
UniProt Q13637: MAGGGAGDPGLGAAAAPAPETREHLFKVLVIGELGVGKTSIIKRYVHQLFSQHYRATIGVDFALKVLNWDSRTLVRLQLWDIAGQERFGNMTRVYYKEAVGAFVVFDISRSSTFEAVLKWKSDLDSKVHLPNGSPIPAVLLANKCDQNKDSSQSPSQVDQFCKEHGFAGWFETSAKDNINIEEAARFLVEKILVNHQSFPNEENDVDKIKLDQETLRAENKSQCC
UniProt P62877, whole entry, looked up: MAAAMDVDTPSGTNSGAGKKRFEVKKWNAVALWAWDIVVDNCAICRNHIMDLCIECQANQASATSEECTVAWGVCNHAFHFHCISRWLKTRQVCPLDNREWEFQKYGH
UniProt P98179: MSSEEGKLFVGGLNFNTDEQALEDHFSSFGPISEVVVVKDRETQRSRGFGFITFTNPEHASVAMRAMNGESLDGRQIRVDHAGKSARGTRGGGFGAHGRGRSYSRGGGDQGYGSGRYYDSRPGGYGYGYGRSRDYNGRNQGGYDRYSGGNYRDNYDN
UniProt Q9UDG2, whole entry, looked up: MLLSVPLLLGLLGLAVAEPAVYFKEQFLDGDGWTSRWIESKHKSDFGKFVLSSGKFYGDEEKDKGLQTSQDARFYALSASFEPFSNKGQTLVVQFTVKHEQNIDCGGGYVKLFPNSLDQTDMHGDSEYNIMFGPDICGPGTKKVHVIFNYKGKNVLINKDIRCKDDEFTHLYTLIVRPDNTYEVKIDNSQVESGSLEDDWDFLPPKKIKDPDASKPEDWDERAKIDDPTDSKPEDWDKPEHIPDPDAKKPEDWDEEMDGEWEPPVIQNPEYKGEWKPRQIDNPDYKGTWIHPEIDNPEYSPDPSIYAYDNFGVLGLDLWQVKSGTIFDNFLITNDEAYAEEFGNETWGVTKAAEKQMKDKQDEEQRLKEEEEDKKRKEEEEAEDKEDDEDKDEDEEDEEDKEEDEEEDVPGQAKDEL
UniProt Q5T160: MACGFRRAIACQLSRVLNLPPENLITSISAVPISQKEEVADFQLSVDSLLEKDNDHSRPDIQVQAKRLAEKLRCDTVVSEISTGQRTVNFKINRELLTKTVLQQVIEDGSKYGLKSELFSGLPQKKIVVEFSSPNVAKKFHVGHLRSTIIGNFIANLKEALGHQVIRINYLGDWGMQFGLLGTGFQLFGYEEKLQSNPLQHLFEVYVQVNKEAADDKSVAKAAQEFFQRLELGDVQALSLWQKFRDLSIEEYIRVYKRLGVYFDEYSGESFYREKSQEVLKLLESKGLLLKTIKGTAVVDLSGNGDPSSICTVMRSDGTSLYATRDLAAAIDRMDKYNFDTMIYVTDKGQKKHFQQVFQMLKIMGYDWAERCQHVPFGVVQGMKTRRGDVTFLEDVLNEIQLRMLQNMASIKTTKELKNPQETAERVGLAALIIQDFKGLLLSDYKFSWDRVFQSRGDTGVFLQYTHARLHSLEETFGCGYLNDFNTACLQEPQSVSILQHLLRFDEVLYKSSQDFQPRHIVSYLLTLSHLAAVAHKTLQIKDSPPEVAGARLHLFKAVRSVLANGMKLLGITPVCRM
UniProt Q15311: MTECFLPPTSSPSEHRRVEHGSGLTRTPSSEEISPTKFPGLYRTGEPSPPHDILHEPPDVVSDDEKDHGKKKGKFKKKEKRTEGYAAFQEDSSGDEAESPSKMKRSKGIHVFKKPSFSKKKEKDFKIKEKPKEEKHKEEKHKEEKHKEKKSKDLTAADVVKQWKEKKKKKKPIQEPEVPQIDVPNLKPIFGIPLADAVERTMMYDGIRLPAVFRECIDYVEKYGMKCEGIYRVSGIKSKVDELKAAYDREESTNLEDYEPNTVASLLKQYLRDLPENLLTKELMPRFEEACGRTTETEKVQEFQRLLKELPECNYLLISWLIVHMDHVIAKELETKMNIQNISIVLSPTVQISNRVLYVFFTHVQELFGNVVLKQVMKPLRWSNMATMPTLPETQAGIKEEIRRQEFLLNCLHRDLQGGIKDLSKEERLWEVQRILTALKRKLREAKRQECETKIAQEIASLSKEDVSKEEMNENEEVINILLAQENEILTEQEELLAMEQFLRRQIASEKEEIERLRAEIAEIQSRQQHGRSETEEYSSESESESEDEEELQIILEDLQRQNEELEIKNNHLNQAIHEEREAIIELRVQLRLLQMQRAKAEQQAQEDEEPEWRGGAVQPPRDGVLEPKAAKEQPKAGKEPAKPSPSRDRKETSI
UniProt Q2KHR2: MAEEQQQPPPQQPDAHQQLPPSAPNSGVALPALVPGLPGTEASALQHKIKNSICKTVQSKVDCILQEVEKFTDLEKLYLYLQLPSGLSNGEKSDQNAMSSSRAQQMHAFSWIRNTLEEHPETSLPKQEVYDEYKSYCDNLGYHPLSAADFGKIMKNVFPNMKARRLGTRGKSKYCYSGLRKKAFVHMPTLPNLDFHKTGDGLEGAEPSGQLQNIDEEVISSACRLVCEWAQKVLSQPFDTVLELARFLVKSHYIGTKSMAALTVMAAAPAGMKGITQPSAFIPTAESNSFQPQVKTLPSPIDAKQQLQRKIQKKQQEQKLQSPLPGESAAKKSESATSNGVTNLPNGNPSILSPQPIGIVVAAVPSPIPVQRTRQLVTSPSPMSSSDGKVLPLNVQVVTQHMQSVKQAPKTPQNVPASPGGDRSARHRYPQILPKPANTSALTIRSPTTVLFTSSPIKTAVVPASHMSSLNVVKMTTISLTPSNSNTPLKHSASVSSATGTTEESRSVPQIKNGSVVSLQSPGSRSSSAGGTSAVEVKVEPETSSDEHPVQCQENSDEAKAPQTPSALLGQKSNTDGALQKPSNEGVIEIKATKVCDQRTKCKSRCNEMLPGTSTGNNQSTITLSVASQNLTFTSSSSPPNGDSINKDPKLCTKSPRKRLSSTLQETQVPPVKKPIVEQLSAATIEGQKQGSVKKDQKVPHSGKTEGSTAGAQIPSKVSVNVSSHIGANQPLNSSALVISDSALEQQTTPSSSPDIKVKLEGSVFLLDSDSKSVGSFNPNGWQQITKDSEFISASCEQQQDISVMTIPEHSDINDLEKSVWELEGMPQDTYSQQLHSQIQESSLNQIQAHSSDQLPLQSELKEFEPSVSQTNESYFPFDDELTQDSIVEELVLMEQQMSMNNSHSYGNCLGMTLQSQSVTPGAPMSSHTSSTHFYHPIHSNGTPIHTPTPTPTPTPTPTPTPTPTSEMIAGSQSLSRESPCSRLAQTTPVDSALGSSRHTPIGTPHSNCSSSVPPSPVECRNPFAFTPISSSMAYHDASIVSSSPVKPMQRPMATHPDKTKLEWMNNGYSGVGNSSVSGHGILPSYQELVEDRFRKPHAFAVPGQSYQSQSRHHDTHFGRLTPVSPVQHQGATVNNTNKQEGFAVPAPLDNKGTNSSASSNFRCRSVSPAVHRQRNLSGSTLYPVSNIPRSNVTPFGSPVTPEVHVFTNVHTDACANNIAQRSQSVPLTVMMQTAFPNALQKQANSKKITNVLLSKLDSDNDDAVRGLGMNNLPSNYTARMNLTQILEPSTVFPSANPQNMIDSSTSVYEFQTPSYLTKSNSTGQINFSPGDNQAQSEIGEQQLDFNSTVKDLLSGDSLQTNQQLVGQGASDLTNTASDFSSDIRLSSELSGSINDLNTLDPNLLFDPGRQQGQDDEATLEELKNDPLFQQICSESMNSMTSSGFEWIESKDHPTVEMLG
UniProt O60930: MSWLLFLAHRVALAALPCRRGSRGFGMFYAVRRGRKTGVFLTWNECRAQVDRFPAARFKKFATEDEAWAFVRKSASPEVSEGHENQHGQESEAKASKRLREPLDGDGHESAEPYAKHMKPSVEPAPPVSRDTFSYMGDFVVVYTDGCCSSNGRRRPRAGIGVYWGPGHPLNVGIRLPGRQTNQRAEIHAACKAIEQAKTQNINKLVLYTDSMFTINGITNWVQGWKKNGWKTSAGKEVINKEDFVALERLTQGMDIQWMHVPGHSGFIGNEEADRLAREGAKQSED
UniProt Q8WWW0: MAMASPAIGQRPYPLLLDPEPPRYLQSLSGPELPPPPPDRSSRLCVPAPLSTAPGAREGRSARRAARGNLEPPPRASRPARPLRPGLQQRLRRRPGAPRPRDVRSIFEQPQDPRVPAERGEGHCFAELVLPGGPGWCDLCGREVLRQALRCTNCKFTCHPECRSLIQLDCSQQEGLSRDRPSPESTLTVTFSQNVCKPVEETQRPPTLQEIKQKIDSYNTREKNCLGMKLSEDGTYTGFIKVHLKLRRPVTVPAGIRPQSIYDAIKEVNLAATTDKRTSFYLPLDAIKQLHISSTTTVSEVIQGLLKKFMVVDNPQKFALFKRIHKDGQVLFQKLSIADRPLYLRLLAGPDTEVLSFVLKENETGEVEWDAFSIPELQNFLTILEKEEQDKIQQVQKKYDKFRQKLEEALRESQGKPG

The targets below were run with COc1ccc(Cn2ccc3cc(C)c(C(=O)NO)cc32)cc1 (assay: dose-dependent thermal stabilisation call (2D-TPP, DLPTP, 10% FDR) (binary (1 = stabilised)); higher = stabilised by the compound). Settings: system: HL-60 intact cells; concentration range 0.04-10 µM.
Procedure: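 2D thermal proteome profiling in intact HL-60 cells treated with BRD-3811 (0, 0.04, 0.29, 2, 10 uM) for 90 min at 37 C, then heated 3 min at one of 12 temperatures (42-63.9 C). Soluble protein was quantified by TMT10 MS. The value is the DLPTP call of the paper: dose-dependent thermal stabilisation over all temperatures at 10% FDR (F-test of a dose-response against a flat model); one experiment, one call per tested protein.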

Target | dose-dependent thermal stabilisation call
RBBP6 (UniProt Q7Z6E9) | inactive: 0
RNASET2 (UniProt O00584) | inactive: 0
RC3H2 (UniProt Q9HBD1) | inactive: 0
RAVER1 (UniProt Q8IY67) | inactive: 0
RBM14 (UniProt Q96PK6) | inactive: 0
RBBP7 (UniProt Q16576) | inactive: 0
RILPL2 (UniProt Q969X0) | inactive: 0
RBM42 (UniProt Q9BTD8) | inactive: 0
REPIN1 (UniProt Q9BWE0) | inactive: 0
RAB3A (UniProt P20336) | inactive: 0
RIPK2 (UniProt O43353) | inactive: 0
RAB31 (UniProt Q13636) | inactive: 0
RASSF2 (UniProt P50749) | inactive: 0
RAB24 (UniProt Q969Q5) | inactive: 0
RASAL3 (UniProt Q86YV0) | inactive: 0
RGS14 (UniProt O43566) | inactive: 0
RC3H1 (UniProt Q5TC82) | inactive: 0
RALY (UniProt Q9UKM9) | inactive: 0
RLTPR (UniProt Q6F5E8) | inactive: 0
REXO2 (UniProt Q9Y3B8) | inactive: 0

2 records picked at random from those above, as already listed:
Target | dose-dependent thermal stabilisation call
RGS14 (UniProt O43566) | inactive: 0
RAB31 (UniProt Q13636) | inactive: 0

The results go on.

Target | dose-dependent thermal stabilisation call
RAB32 (UniProt Q13637) | inactive: 0
RABEPK (UniProt Q7Z6M1) | inactive: 0
RMI1 (UniProt Q9H9A7) | inactive: 0
RG9MTD2 (UniProt Q8TBZ6) | inactive: 0
PYGB (UniProt P11216) | inactive: 0
RBX1 (UniProt P62877) | inactive: 0
RBM3 (UniProt P98179) | inactive: 0
RNF167 (UniProt Q9H6Y7) | inactive: 0
UniProt Q9UDG2_HUMAN | inactive: 0
RAB5B (UniProt P61020) | inactive: 0
RANBP2 (UniProt P49792) | inactive: 0
RARS2 (UniProt Q5T160) | inactive: 0
RAC2 (UniProt P15153) | inactive: 0
RALBP1 (UniProt Q15311) | inactive: 0
RFX7 (UniProt Q2KHR2) | inactive: 0
RNASEH1 (UniProt O60930) | inactive: 0
RASSF5 (UniProt Q8WWW0) | inactive: 0
RAB1A (UniProt P62820) | inactive: 0
PYCR1 (UniProt P32322) | inactive: 0
PYCRL (UniProt Q53H96) | inactive: 0
